Source: patent US20140024132A1, “METHODS AND SYSTEMS USING INTEGRATED METABOLOMICS AND PHARMACOKINETICS FOR MULTI-COMPONENT DRUG EVALUATION” (priority 2010, published 2014)

Test: Pearson correlation of absorbed, biotransformed plant metabolites and altered endogenous metabolites in urine
Type: in vivo, human
Conditions: FIG. 13

Structure (SMILES): O=C(O)Cc1cccc(O)c1 [3-Hydroxyphenylacetic acid]
- effect of increase in its urine concentration on aminomalonic acid and 2-aminobutyric acid: elevated level
